Experimental data reported in the supplement of paper PMC12067093, “Discovery and optimisation of a covalent ligand for TRIM25 and its application to targeted protein ubiquitination” (Chemical Science, 2025).
The list shows a part of the results.

By UniProt entry, the sequences of proteins in these tests, tags left out. Where a name states a change or a piece, a line headed by the entry shows the natural chain unless it says otherwise.
UniProt P17813: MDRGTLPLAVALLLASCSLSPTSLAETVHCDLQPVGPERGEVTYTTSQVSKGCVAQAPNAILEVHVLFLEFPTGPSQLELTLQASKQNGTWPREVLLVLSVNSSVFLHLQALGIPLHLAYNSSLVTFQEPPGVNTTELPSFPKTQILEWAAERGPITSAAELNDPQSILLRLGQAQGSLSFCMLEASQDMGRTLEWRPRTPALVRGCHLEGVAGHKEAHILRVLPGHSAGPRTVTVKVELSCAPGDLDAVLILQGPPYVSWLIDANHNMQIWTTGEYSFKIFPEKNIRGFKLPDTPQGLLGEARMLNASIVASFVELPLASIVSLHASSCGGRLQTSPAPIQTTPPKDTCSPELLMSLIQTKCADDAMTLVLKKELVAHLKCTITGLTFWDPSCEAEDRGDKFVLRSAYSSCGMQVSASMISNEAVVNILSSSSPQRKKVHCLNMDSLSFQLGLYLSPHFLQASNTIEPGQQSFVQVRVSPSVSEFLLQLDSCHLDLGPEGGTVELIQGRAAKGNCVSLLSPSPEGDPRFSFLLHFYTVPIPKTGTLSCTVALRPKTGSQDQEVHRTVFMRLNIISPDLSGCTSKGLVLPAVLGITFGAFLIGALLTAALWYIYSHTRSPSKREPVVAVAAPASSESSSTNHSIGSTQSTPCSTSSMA
UniProt P55010, whole entry, looked up: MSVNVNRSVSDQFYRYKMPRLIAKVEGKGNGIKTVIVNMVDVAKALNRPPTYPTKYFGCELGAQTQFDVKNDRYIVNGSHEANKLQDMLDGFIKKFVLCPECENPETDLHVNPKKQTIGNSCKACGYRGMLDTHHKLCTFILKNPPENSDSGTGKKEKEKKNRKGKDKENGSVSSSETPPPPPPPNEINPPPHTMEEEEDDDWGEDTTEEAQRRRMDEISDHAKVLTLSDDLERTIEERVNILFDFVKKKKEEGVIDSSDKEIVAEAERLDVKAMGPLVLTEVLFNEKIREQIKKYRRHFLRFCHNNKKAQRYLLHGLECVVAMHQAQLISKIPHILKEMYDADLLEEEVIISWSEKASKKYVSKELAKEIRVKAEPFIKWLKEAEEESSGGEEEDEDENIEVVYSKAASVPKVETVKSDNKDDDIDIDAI
UniProt Q13541: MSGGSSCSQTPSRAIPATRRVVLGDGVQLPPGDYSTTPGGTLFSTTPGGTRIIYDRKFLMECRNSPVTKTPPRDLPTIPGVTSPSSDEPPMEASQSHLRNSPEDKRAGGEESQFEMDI
UniProt P07814: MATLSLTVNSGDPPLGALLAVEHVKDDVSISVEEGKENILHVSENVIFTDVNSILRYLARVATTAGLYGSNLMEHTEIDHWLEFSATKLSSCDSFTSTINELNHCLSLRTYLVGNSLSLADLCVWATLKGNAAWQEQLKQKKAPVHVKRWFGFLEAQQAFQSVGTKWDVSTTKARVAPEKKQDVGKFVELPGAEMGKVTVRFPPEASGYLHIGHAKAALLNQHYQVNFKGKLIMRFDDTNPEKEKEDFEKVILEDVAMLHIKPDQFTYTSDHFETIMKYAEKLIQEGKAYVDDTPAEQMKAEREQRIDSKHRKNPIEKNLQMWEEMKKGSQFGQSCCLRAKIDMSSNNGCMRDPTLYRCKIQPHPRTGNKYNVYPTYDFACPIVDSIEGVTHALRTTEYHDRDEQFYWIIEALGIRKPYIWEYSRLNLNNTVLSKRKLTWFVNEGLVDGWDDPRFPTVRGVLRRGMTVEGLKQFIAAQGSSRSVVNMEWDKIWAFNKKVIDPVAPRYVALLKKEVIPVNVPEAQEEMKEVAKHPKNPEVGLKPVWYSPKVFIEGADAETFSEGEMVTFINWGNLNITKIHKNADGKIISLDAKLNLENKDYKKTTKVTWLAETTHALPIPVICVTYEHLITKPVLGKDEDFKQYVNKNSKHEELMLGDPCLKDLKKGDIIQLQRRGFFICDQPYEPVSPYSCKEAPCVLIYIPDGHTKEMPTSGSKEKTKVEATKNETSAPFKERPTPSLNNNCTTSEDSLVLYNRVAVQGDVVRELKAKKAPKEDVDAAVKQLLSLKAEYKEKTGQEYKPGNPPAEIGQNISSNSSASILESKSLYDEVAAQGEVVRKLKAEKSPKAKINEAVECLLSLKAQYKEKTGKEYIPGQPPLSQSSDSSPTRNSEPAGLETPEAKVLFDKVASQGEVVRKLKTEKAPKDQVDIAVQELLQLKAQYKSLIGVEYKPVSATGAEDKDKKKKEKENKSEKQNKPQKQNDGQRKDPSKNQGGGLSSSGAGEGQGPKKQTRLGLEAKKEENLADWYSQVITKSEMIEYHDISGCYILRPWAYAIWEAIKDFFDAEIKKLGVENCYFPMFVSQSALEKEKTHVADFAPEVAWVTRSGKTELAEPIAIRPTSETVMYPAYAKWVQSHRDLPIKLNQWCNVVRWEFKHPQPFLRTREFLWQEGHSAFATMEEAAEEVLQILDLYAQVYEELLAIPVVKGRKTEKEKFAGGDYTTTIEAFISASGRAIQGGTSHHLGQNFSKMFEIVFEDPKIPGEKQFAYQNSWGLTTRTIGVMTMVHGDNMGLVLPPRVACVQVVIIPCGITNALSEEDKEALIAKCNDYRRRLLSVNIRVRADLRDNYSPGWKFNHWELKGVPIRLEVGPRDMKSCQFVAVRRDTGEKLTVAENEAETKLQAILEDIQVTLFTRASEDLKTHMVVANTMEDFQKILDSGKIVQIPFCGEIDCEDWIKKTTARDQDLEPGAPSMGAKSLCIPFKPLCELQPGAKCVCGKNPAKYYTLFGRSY
UniProt O60841: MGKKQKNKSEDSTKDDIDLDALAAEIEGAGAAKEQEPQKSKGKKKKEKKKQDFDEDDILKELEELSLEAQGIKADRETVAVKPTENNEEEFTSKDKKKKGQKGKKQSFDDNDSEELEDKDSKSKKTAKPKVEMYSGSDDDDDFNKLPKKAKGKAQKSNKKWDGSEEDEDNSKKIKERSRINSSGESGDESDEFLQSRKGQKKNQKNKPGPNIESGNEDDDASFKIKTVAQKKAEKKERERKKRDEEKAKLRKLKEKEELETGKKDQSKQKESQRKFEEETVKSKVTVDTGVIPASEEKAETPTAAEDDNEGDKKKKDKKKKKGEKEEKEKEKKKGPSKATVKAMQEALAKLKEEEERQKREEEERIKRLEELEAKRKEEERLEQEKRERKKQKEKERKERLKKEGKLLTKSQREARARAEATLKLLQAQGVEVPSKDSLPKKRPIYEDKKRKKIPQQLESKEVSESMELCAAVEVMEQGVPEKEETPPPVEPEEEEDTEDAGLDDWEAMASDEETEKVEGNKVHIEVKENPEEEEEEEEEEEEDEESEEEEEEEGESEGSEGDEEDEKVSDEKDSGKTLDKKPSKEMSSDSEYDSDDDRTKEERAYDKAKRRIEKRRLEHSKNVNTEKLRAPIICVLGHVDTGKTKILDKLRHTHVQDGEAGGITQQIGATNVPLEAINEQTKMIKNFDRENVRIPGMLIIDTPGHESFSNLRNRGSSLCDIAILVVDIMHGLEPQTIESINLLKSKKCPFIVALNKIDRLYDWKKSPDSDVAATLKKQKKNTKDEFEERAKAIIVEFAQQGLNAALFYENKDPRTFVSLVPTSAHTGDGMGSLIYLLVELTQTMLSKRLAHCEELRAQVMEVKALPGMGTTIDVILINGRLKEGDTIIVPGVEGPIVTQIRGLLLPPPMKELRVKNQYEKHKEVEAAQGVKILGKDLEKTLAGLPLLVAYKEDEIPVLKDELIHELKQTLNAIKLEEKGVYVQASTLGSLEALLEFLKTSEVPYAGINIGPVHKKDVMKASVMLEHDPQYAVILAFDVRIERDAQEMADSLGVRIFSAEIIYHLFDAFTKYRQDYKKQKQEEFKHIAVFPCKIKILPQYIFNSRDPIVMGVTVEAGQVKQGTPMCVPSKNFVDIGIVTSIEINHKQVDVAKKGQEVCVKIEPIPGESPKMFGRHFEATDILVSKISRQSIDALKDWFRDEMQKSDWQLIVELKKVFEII
UniProt P08246: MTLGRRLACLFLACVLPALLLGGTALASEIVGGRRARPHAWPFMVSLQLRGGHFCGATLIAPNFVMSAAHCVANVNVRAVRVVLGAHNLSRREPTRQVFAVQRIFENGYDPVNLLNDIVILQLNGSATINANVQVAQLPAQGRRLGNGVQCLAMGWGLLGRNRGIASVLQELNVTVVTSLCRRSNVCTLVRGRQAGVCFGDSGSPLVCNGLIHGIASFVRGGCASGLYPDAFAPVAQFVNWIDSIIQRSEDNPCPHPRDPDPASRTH
UniProt Q9HC35: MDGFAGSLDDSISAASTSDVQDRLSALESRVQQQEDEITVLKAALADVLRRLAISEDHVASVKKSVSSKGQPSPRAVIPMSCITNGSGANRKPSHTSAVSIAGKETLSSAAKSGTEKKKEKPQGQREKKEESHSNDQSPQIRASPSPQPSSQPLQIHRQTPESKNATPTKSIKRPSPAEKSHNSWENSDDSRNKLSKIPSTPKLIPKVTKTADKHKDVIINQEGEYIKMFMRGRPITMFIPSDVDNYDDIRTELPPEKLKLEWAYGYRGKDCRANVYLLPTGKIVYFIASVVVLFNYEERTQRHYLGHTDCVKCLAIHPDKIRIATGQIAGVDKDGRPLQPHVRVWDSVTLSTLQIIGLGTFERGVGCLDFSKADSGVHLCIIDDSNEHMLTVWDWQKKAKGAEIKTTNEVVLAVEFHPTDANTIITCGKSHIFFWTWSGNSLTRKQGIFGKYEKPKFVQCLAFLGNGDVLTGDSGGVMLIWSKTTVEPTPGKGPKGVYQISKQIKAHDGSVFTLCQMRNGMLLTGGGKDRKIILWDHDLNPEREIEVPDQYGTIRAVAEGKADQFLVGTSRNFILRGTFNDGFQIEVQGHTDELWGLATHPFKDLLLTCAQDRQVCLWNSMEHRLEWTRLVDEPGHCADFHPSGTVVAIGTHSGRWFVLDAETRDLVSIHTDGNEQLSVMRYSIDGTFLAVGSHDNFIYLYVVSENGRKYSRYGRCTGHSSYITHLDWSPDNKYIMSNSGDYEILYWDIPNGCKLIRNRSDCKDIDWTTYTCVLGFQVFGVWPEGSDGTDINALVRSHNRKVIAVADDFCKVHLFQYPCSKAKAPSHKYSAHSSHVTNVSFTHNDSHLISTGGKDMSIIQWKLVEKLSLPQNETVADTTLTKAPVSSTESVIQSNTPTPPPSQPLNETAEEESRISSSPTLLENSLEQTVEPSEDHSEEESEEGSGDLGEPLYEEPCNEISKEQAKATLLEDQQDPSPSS
UniProt P42566: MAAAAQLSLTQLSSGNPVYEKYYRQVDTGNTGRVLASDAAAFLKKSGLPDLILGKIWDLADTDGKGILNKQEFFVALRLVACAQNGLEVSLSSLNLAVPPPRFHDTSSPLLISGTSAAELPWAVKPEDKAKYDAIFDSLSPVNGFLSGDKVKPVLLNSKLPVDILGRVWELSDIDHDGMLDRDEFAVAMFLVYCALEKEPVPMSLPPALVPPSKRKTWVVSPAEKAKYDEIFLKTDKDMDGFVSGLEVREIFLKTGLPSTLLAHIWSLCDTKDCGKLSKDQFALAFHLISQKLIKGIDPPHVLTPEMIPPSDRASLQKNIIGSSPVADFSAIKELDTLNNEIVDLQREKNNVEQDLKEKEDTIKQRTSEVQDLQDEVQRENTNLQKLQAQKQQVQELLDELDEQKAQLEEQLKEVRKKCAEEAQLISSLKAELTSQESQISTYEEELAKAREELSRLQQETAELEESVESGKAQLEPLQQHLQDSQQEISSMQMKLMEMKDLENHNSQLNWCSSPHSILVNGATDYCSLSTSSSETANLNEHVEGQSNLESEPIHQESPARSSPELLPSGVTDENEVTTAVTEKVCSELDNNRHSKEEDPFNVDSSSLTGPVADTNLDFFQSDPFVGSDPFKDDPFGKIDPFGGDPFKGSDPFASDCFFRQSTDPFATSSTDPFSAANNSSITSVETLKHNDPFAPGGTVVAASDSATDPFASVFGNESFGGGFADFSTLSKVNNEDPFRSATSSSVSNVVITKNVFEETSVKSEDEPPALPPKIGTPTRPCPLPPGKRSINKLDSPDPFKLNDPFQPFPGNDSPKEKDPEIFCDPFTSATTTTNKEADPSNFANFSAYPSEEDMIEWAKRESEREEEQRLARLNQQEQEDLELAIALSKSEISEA
UniProt O43402: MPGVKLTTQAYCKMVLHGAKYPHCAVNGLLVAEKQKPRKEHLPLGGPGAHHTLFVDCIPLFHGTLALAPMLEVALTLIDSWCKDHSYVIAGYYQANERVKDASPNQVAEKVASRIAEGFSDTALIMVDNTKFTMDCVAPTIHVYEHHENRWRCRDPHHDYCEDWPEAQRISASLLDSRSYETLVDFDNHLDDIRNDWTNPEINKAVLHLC
UniProt Q9UBQ5, whole entry, looked up: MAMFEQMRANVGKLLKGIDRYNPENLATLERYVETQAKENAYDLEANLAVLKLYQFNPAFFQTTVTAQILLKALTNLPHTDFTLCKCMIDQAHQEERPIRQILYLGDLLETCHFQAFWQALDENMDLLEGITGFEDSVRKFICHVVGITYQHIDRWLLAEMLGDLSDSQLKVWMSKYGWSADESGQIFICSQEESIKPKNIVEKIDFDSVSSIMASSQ

Compound: CC1Cc2ccccc2N1C(=O)C1CCCN(C1)C(=O)CCl (mixture of isomers) [TRIM25 ligand 11 (diastereomer mixture)]
Assay: probe-labelled cysteine peptide fold change vs DMSO (competition) (log2 fold change); higher = less target engagement (more negative = stronger competition)
Settings: 10 µM; THP-1; incubation time: 4 h
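Further: competitive chemoproteomic profiling in live THP-1 cells with an iodoacetamide desthiobiotin (IA-DTB) probe, comparing probe-labelled peptide intensities in compound-treated cells against DMSO-treated controls.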

Row | Target | probe-labelled cysteine peptide fold change
1 | ENG_P17813_549_TGTLSCTVALRPK (UniProt P17813) | 0.0148
2 | EIF5_P55010_99+102_FVLCPECENPETDLHVNPK (UniProt P55010) | -0.125
3 | EIF4EBP1_Q13541_62_FLMECR (UniProt Q13541) | 0.0288
4 | EPRS_P07814_92+105_LSSCDSFTSTINELNHCLSLR (UniProt P07814) | 0.0478
5 | EPRS_P07814_350_IDMSSNNGCMRDPTLYR (UniProt P07814) | -0.228
6 | EIF4A2_Q14240_132_VILALGDYMGATCHACIGGTNVR (UniProt Q14240) | -0.0236
7 | EIF5B_O60841_1092_HIAVFPCK (UniProt O60841) | -0.0742
8 | EPRS_P07814_337_KGSQFGQSCCLR (UniProt P07814) | -0.132
9 | EIF4A3_P38919_140_GLLALGDYMNVQCHACIGGTNVGEDIRK (UniProt P38919) | -0.0111
10 | ELP2_Q6IA86_13_VAPVLETSHVFCCPNR (UniProt Q6IA86) | 0.0804
11 | ELMO1_Q92556_438_VGELPSETCNDFHPMFFTHDR (UniProt Q92556) | 0.456
12 | EIF5_P55010_138_LCTFILK (UniProt P55010) | -0.136
13 | ERAP1_Q9NZ08_193_MAFPCFDEPAFK (UniProt Q9NZ08) | -0.0411
14 | EMC2_Q15006_192_AAFCLEELMMTNPHNHLYCQQYAEVK (UniProt Q15006) | 0.0434
15 | ELANE_P08246_254_SEDNPCPHPR (UniProt P08246) | -0.0328
16 | EIF4G2_P78344_97_LCLELLNVGVESK (UniProt P78344) | -0.155
17 | EIF3I_Q13347_120_QMGYQCFVSFFDLR (UniProt Q13347) | 0.312
18 | EML4_Q9HC35_82_AVIPMSCITNGSGANR (UniProt Q9HC35) | -0.091
19 | ELP1_O95163_414_QTVVPPPMCTYQLLFPHPVNQVTFLAHPQK (UniProt O95163) | -0.0615

Two entries from above, in CSV form:
Row,Target,probe-labelled cysteine peptide fold change
15,ELANE_P08246_254_SEDNPCPHPR (UniProt P08246),-0.0328
19,ELP1_O95163_414_QTVVPPPMCTYQLLFPHPVNQVTFLAHPQK (UniProt O95163),-0.0615

Further entries

Row | Target | probe-labelled cysteine peptide fold change
20 | EPRS_P07814_1301+1309_VACVQVVIIPCGITNALSEEDK (UniProt P07814) | -0.162
21 | EPS15_P42566_269_TGLPSTLLAHIWSLCDTK (UniProt P42566) | -0.0429
22 | ELP1_O95163_23_DIQGPGNPQCFSLR (UniProt O95163) | 0.0812
23 | EMC8_O43402_153_CRDPHHDYCEDWPEAQR (UniProt O43402) | 0.307
24 | EIPR1_Q53HC9_247_QYYLASCGDDCK (UniProt Q53HC9) | 0.03
25 | EIF4ENIF1_Q9NRA8_767_SSCSTPLSQANR (UniProt Q9NRA8) | -0.14
26 | ENDOV_Q8N8Q3_140_GFGVACHLGVLTDLPCVGVAK (UniProt Q8N8Q3) | 0.103
27 | ELP4_Q96EB1_412_LGPGCGMMAGGK (UniProt Q96EB1) | -0.091
28 | ENG_P17813_582_LNIISPDLSGCTSK (UniProt P17813) | -0.0335
29 | EP300_Q09472_1272_MHQICVLHHEIIWPAGFVCDGCLK (UniProt Q09472) | 0.0152
30 | ELP5_Q8TE02_52+61_SALCGEQVHILGCEVSEEEFREGFDSDINNR (UniProt Q8TE02) | -0.0628
31 | EIF4A1_P60842_131_VVMALGDYMGASCHACIGGTNVR (UniProt P60842) | 0.218
32 | EIF3K_Q9UBQ5_87_CMIDQAHQEERPIR (UniProt Q9UBQ5) | 0.0313
33 | EIF3D_O15371_404_HCNGVDWR (UniProt O15371) | -0.0977
34 | EIF4G1_Q04637_1516_YLCDEQK (UniProt Q04637) | 0.0853
35 | EMC8_O43402_136_FTMDCVAPTIHVYEHHENR (UniProt O43402) | -0.0913
36 | EPRS_P07814_336+337_KGSQFGQSCCLR (UniProt P07814) | -0.165
37 | EML4_Q9HC35_617_QVCLWNSMEHR (UniProt Q9HC35) | 0.0163
